We go through three substances from article PMC6468270 (Chembiochem, 2019).

Some peptides are written in HELM: one residue between dots, names in brackets for other building blocks, links after the first $.

This data set in a line: general procedure: Fmoc solid-phase peptide synthesis; Rink amide MBHA resin; HCTU or HATU (5 equiv) and DIPEA (5 equiv). The following applies: whole synthesis, 220 nm, scale of the general procedure 0.1 mmol.

With “PEPTIDE1{[ac].G.A.M.G.K.[PenGly].I.Q.L.[PenGly].R.R.I.R.G.E.R.A.G.C.A.[am]}$PEPTIDE1,PEPTIDE1,7:R3-11:R3$$$V2.0”, the “purity (crude or final not stated)” value is more than 90%.

As for “PEPTIDE1{[ac].G.A.[PenGly].G.K.D.[PenGly].Q.L.A.R.R.I.R.G.E.R.A.[am]}$PEPTIDE1,PEPTIDE1,4:R3-8:R3$$$V2.0”, the “purity (crude or final not stated)” value is on record as more than 90%.

Consider “PEPTIDE1{[ac].G.A.M.G.K.D.I.Q.L.A.R.R.I.R.G.E.R.A.[am]}$$$$V2.0”, for which the “purity (crude or final not stated)” value is listed as more than 97%.
